From patent US20260092086A1, “ANTIMICROBIAL LASSO PEPTIDES” (priority 2022, published 2026)
Not every detail of the peptide structures is certain; ends, links or a residue may be inferred. Where a SMILES comes first, the peptide text is derived from it.

Tests used:
[1] = tested on: Enterobacter amnigenus ATCC 33072; type: cell-based; settings: against Enterobacter amnigenus (FIG. 28, peptides at 10 μM; Y10A FIG. 34)
Description: Cloacaenodin was evaluated against several common laboratory strains as well as commercially acquired strains using a spot-on-lawn assay.^45 Strains were streaked out onto LB agar plates and incubated overnight at their recommended temperatures. A single colony was then used to inoculate an overnight culture in 5 mL of LB broth. After shaking at 250 rpm at the recommended temperature for each strain, 50 μL of the overnight culture was used to inoculate 5 mL of LB broth (volume ratio 1:100). These cultures were grown for a few hours until they reached the exponential phase (OD600˜0.4-0.6) before being added to 10 mL of soft M63 agar at a final cell density of 10^7 CFUs/mL, or 10^8 CFUs total in 10 mL. The M63 soft agar was composed of 2 g/L of (NH4)2SO4 (EMD MilliporeSigma), 13.6 g/L of KH2PO4 (Fisher), 40 mg/L of each of the 20 common amino acids, 0.2% glucose (Sigma), 0.00005% w/v thiamine hydrochloride (Sigma), and 0.65% w/v bacteriological-grade agar (Apex Bioresearch). […] Upon solidification, 10 μL of purified cloacaenodin in water at two-fold dilutions were then spotted onto the agar and allowed to dry. The plates were incubated overnight at the strains' recommended temperatures and analyzed the next morning for activity. The MIC is defined as the last dilution where a spot was visible.

[2] = tested on: Escherichia coli XL-1 Blue; assay: Intracellular toxicity: IPTG-induced expression from plasmid lacking cloD; type: cell-based; settings: IPTG induction
Description: After characterizing the structure and proteolytic resistance of cloacaenodin, cloacaenodin's inhibition of bacterial growth was tested. As a preliminary test of antimicrobial activity, a version of the expression plasmid from which the cloD gene was removed was cloned, so that the lasso peptide could not be exported by the Escherichia coli upon isopropyl β-D-1-thiogalactopyranoside (IPTG)-induced expression.
Cloacaenodin variants were constructed using site-directed mutagenesis. Mutant precursor genes were amplified from the wild-type precursor in pAK2 using mutagenic primers. Following PCR amplification of the mutated precursor gene, the purified PCR product was digested and ligated into pAK2 with the EcoRI and HindIII restriction sites. For the pMP3 plasmid for deletion of the cloD gene, the D gene was first disrupted by digestion of pAK2 with BamHI and NcoI, which removed the entire cloD gene and the C-terminal portion of the cloC gene. The digested plasmid was then ligated with an insert that restored the C-terminal portion of the cloC gene. All mutants were sequence confirmed by Genewiz (now Azenta) before use.

In the case of `CC[C@H](C)[C@@H]1NC(=O)[C@H](CCCNC(=N)N)NC(=O)[C@H](CC(=O)O)NC(=O)[C@H](C(C)C)NC(=O)[C@H](CO)NC(=O)[C@H](Cc2c[nH]cn2)NC(=O)CNC(=O)CC[C@@H](C(=O)N[C@@H](Cc2ccc(O)cc2)C(=O)N[C@@H](Cc2ccccc2)C(=O)NCC(=O)N2CCC[C@H]2C(=O)N2CCC[C@H]2C(=O)NCC(=O)N[C@@H](CC(C)C)C(=O)N2CCC[C@H]2C(=O)NCC(=O)N2CCC[C@H]2C(=O)N[C@H](C(=O)N[C@@H](CC(C)C)C(=O)N[C@@H](Cc2ccccc2)C(=O)N[C@@H](Cc2ccc(O)cc2)C(=O)NCC(=O)O)C(C)C)NC(=O)[C@@H]2CCCN2C1=O` [Cloacaenodin S24G] (HELM PEPTIDE1{G.H.S.V.D.R.I.P.E.Y.F.G.P.P.G.L.P.G.P.V.L.F.Y.G}$PEPTIDE1,PEPTIDE1,1:R1-9:R3$$$V2.0; C-terminus assumed; bridges inferred), the “Bioactivity Relative to WT” value [1] is reported as “Abolished”, the “intracellular toxicity (growth of E. coli on IPTG without CloD)” value ([2]; listed as S24G) is reported as “still inhibited Escherichia coli cell growth” and the “intracellular toxicity (growth of E. coli on IPTG without CloD)” value ([2]; listed as cloacaenodin S24G) is reported as “exerts intracellular toxicity”.
